Experimental findings from PMC3407795 (EJNMMI Research, 2012) are described below.

The data set is described as follows: peptide synthesis. As to conditions: whole synthesis.

Strings that start with PEPTIDE1 are HELM notation: dots part the residues, brackets hold end groups and non-standard residues.

In the case of “PEPTIDE1{[XDOTA].A.G.C.K.N.F.F.W.K.T.F.T.S.C}$PEPTIDE1,PEPTIDE1,4:R3-15:R3$$$V2.0”, the “final HPLC purity” value was 98%.
The figure for “PEPTIDE1{[XDOTA].A.G.C.K.N.F.F.[dW].K.T.F.T.S.C}$PEPTIDE1,PEPTIDE1,4:R3-15:R3$$$V2.0” is 90%.
